# Results published in the supplement of paper PMC8728848.
# The list shows a part of the results.
# Key:
# Assay in all cases: glycan array binding signal (z-score within array); higher = stronger binding
# Settings in all cases: glycan notation: IUPAC condensed, linker removed
# Gal3S(b1-4)Glc6S = biological target: Gal3S(b1-4)Glc6S
# How it was run: (§1)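 Columns mapping to the same glycan were averaged after glycan names were converted to IUPAC-condensed notation. The data come from 3228 arrays in the Consortium for Functional Glycomics database, limited to those with an available protein sequence. Binding is reported as a within-array Z-score averaged across arrays of one protein sequence and across linkers.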
# Gal3S(b1-4)GlcNAc = biological target: Gal3S(b1-4)GlcNAc
# How it was run: as §1
# [1] = biological target: Gal3S(b1-4)[Fuc(a1-3)]Glc6S
# How it was run: as §1
# [2] = biological target: Gal3S(b1-4)[Fuc(a1-3)]GlcNAc
# How it was run: as §1
# [3] = biological target: Gal3S(b1-4)[Fuc(a1-3)]GlcNAc6S
# How it was run: as §1
# Gal3S4S(b1-4)GlcNAc = biological target: Gal3S4S(b1-4)GlcNAc
# How it was run: as §1
# Gal3S6S(b1-4)GlcNAc = biological target: Gal3S6S(b1-4)GlcNAc
# How it was run: as §1
# Gal3S6S(b1-4)GlcNAc6S = biological target: Gal3S6S(b1-4)GlcNAc6S
# How it was run: as §1
# Gal4S(b1-4)GlcNAc = biological target: Gal4S(b1-4)GlcNAc
# How it was run: as §1
# Gal4S6S(b1-4)GlcNAc = biological target: Gal4S6S(b1-4)GlcNAc
# How it was run: as §1
# Gal6P(b1-4)GlcNAc = biological target: Gal6P(b1-4)GlcNAc
# How it was run: as §1
# Gal6S(b1-3)GlcNAc = biological target: Gal6S(b1-3)GlcNAc
# How it was run: as §1
# Gal6S(b1-3)GlcNAc6S = biological target: Gal6S(b1-3)GlcNAc6S
# How it was run: as §1
# Gal6S(b1-4)Glc = biological target: Gal6S(b1-4)Glc
# How it was run: as §1
# Gal6S(b1-4)Glc6S = biological target: Gal6S(b1-4)Glc6S
# How it was run: as §1
# Gal6S(b1-4)GlcNAc = biological target: Gal6S(b1-4)GlcNAc
# How it was run: as §1
# Gal6S(b1-4)GlcNAc6S = biological target: Gal6S(b1-4)GlcNAc6S
# How it was run: as §1
# GalNAc(a1-3)Gal = biological target: GalNAc(a1-3)Gal
# How it was run: as §1
# GalNAc(a1-3)GalNAc = biological target: GalNAc(a1-3)GalNAc
# How it was run: as §1
# [4] = biological target: GalNAc(a1-3)GalNAc(a1-3)Gal(a1-4)Gal(b1-4)GlcNAc
# How it was run: as §1
# [5] = biological target: GalNAc(a1-3)GalNAc(b1-3)Gal(a1-4)Gal(b1-4)Glc
# How it was run: as §1
# GalNAc(b1-3)Gal = biological target: GalNAc(b1-3)Gal
# How it was run: as §1
# [6] = biological target: GalNAc(b1-3)Gal(a1-4)Gal(b1-4)GlcNAc
# How it was run: as §1
# [7] = biological target: GalNAc(b1-3)Gal(a1-4)Gal(b1-4)GlcNAc(b1-3)Gal(b1-4)Glc
# How it was run: as §1
# [8] = biological target: GalNAc(b1-3)Gal(a1-6)Gal(b1-4)Glc
# How it was run: as §1
# GalNAc(b1-3)GalNAc = biological target: GalNAc(b1-3)GalNAc
# How it was run: as §1
# GalNAc(b1-3)GlcNAc = biological target: GalNAc(b1-3)GlcNAc
# How it was run: as §1
# GalNAc(b1-4)Gal(b1-4)Glc = biological target: GalNAc(b1-4)Gal(b1-4)Glc
# How it was run: as §1
# GalNAc(b1-4)GlcNAc = biological target: GalNAc(b1-4)GlcNAc
# How it was run: as §1
# [9] = biological target: GalNAc(b1-4)GlcNAc(b1-2)Man
# How it was run: as §1
# [10] = biological target: GalNAc(b1-4)GlcNAc(b1-2)Man(a1-3)[GalNAc(b1-4)GlcNAc(b1-2)Man(a1-6)]Man(b1-4)GlcNAc(b1-4)GlcNAc
# How it was run: as §1
# [11] = biological target: GalNAc(b1-4)GlcNAc(b1-3)GalNAc(b1-4)GlcNAc
# How it was run: as §1
# GalNAc(b1-4)GlcNAc6S = biological target: GalNAc(b1-4)GlcNAc6S
# How it was run: as §1
# GalNAc(b1-6)GalNAc = biological target: GalNAc(b1-6)GalNAc
# How it was run: as §1
# GalNAc3S(b1-4)GlcNAc = biological target: GalNAc3S(b1-4)GlcNAc
# How it was run: as §1
# GalNAc3S(b1-4)GlcNAc3S = biological target: GalNAc3S(b1-4)GlcNAc3S
# How it was run: as §1
# [12] = biological target: GalNAc3S(b1-4)[Fuc(a1-3)]GlcNAc
# How it was run: as §1
# GalNAc4S6S(b1-4)GlcNAc = biological target: GalNAc4S6S(b1-4)GlcNAc
# How it was run: as §1
# GalNAc6S(b1-4)GlcNAc = biological target: GalNAc6S(b1-4)GlcNAc
# How it was run: as §1
# Glc(a1-4)Glc = biological target: Glc(a1-4)Glc
# How it was run: as §1
# [13] = biological target: Glc(a1-4)Glc(a1-4)Glc(a1-4)Glc
# How it was run: as §1
# Glc(a1-6)Glc(a1-6)Glc = biological target: Glc(a1-6)Glc(a1-6)Glc
# How it was run: as §1
# [14] = biological target: Glc(a1-6)Glc(a1-6)Glc(a1-6)Glc
# How it was run: as §1
# Glc(b1-4)Glc = biological target: Glc(b1-4)Glc
# How it was run: as §1
# Glc(b1-6)Glc = biological target: Glc(b1-6)Glc
# How it was run: as §1
# GlcA(b1-3)Gal = biological target: GlcA(b1-3)Gal
# How it was run: as §1
# GlcA(b1-3)GlcNAc = biological target: GlcA(b1-3)GlcNAc
# How it was run: as §1
# GlcA(b1-6)Gal = biological target: GlcA(b1-6)Gal
# How it was run: as §1
# [15] = biological target: GlcA3S(b1-3)Gal(b1-4)GlcNAc(b1-2)Man
# How it was run: as §1
# [16] = biological target: GlcA3S(b1-3)Gal(b1-4)GlcNAc(b1-3)Gal(b1-4)Glc
# How it was run: as §1
# [17] = biological target: GlcNAc(a1-3)Gal(b1-4)GlcNAc
# How it was run: as §1
# [18] = biological target: GlcNAc(a1-4)Gal(b1-3)GlcNAc
# How it was run: as §1
# [19] = biological target: GlcNAc(a1-4)Gal(b1-4)GalNAc
# How it was run: as §1
# [20] = biological target: GlcNAc(a1-4)Gal(b1-4)GlcNAc
# How it was run: as §1
# [21] = biological target: GlcNAc(a1-4)Gal(b1-4)GlcNAc(b1-3)Gal(b1-4)Glc
# How it was run: as §1
# [22] = biological target: GlcNAc(a1-4)Gal(b1-4)GlcNAc(b1-3)Gal(b1-4)GlcNAc
# How it was run: as §1
# [23] = biological target: GlcNAc(a1-4)Gal(b1-4)GlcNAc(b1-3)Gal(b1-4)GlcNAc(b1-3)Gal(b1-4)GlcNAc
# How it was run: as §1
# [24] = biological target: GlcNAc(a1-4)Gal(b1-4)GlcNAc(b1-3)Gal(b1-4)[Fuc(a1-3)]GlcNAc(b1-3)Gal(b1-4)[Fuc(a1-3)]GlcNAc
# How it was run: as §1
# [25] = biological target: GlcNAc(a1-6)Gal(b1-4)GlcNAc
# How it was run: as §1
# [26] = biological target: GlcNAc(b1-2)Gal(b1-3)GalNAc
# How it was run: as §1
binder,measurement,setting,value
Blon2355mut (Bifidobacterium longum) (protein) MVQEPTLEWHVIPEPTNVEPLVGTCSLPLSGTVVEQRGADDAEAVFARQLVDDIKRVCGGRWQVASGEVQREVTLRTSPSLDDWSYVLEVSPDGVVITGSGFEGVRDGVQTLRQIIRQIGLTIPCMVIRDRPAFSTRGYYLDVTRGRVPSMAWLKSWVDRLCFYKYNQFQLYIEHTFQFNGLSEVWRGADPLTSSDILELDSYCAARGIELVPSVSTFGHHYTALRTRQLRDLGEFPEDADRPFSLIERMTHHTLNITDERSYEFSTSLIDELMPLFRSRKFNICANETFDLGKGRSKQESAKRGVGAMYADFVERLCRHVDDRGHDVMVWADVALEHPEIIDTLPKNITWLNWQYEPNVDDGTTAALADAGATQMVCPAVWCWNALIPRIDDAWNNITRMARHGRAHDVSGMLVTDWGDFGHVNDPRMSVPGMIFGAQQSWNPDAELSEVDMLSRISTIEYGDHTGSVVGALRGASAKGGFSWSDLVTYLELDDGRGGCNTEIVRVMGCLEAYRNDLPQSGQARLADARVSMLRTLRDSILAGRELNGKLDDAAKDITQLLRVAGDPSSAAVWSLAIDGQRLLNRVGLALLAAHGVVRQDEAGIDAAKLADELECWTEQYSRLWHEVSRQSELARIQHVVWRAADVLRSI,glycan array binding signal (z-score),Gal3S(b1-4)Glc6S,-0.345
same,glycan array binding signal (z-score),Gal3S(b1-4)GlcNAc,-0.393
same,glycan array binding signal (z-score),[1],3.52
same,glycan array binding signal (z-score),[2],0.971
same,glycan array binding signal (z-score),[3],0.587
same,glycan array binding signal (z-score),Gal3S4S(b1-4)GlcNAc,-0.808
same,glycan array binding signal (z-score),Gal3S6S(b1-4)GlcNAc,1.32
same,glycan array binding signal (z-score),Gal3S6S(b1-4)GlcNAc6S,1.03
same,glycan array binding signal (z-score),Gal4S(b1-4)GlcNAc,0.268
same,glycan array binding signal (z-score),Gal4S6S(b1-4)GlcNAc,0.175
same,glycan array binding signal (z-score),Gal6P(b1-4)GlcNAc,-0.404
same,glycan array binding signal (z-score),Gal6S(b1-3)GlcNAc,-0.433
same,glycan array binding signal (z-score),Gal6S(b1-3)GlcNAc6S,0.212
same,glycan array binding signal (z-score),Gal6S(b1-4)Glc,0.304
same,glycan array binding signal (z-score),Gal6S(b1-4)Glc6S,1.48
same,glycan array binding signal (z-score),Gal6S(b1-4)GlcNAc,1.32
same,glycan array binding signal (z-score),Gal6S(b1-4)GlcNAc6S,-1.15
same,glycan array binding signal (z-score),GalNAc(a1-3)Gal,-0.046
same,glycan array binding signal (z-score),GalNAc(a1-3)GalNAc,-0.381
same,glycan array binding signal (z-score),[4],-0.873
same,glycan array binding signal (z-score),[5],-1.15
same,glycan array binding signal (z-score),GalNAc(b1-3)Gal,-0.861
same,glycan array binding signal (z-score),[6],1.4
same,glycan array binding signal (z-score),[7],-0.283
same,glycan array binding signal (z-score),[8],-0.583
same,glycan array binding signal (z-score),GalNAc(b1-3)GalNAc,-0.665
same,glycan array binding signal (z-score),GalNAc(b1-3)GlcNAc,0.179
same,glycan array binding signal (z-score),GalNAc(b1-4)Gal(b1-4)Glc,-0.204
same,glycan array binding signal (z-score),GalNAc(b1-4)GlcNAc,3.04
same,glycan array binding signal (z-score),[9],0.782
same,glycan array binding signal (z-score),[10],-0.57
same,glycan array binding signal (z-score),[11],0.796
same,glycan array binding signal (z-score),GalNAc(b1-4)GlcNAc6S,2.38
same,glycan array binding signal (z-score),GalNAc(b1-6)GalNAc,0.004
same,glycan array binding signal (z-score),GalNAc3S(b1-4)GlcNAc,-0.364
same,glycan array binding signal (z-score),GalNAc3S(b1-4)GlcNAc3S,-0.051
same,glycan array binding signal (z-score),[12],0.145
same,glycan array binding signal (z-score),GalNAc4S6S(b1-4)GlcNAc,-0.651
same,glycan array binding signal (z-score),GalNAc6S(b1-4)GlcNAc,-0.569
same,glycan array binding signal (z-score),Glc(a1-4)Glc,0.744
same,glycan array binding signal (z-score),[13],2.06
same,glycan array binding signal (z-score),Glc(a1-6)Glc(a1-6)Glc,0.116
same,glycan array binding signal (z-score),[14],-0.66
same,glycan array binding signal (z-score),Glc(b1-4)Glc,-0.133
same,glycan array binding signal (z-score),Glc(b1-6)Glc,-0.548
same,glycan array binding signal (z-score),GlcA(b1-3)Gal,-1.31
same,glycan array binding signal (z-score),GlcA(b1-3)GlcNAc,-0.541
same,glycan array binding signal (z-score),GlcA(b1-6)Gal,0.584
same,glycan array binding signal (z-score),[15],-0.982
same,glycan array binding signal (z-score),[16],0.426
same,glycan array binding signal (z-score),[17],0.14
same,glycan array binding signal (z-score),[18],0.623
same,glycan array binding signal (z-score),[19],-0.513
same,glycan array binding signal (z-score),[20],-0.637
same,glycan array binding signal (z-score),[21],-0.818
same,glycan array binding signal (z-score),[22],-0.378
same,glycan array binding signal (z-score),[23],-1.03
same,glycan array binding signal (z-score),[24],-0.864
same,glycan array binding signal (z-score),[25],-0.447
same,glycan array binding signal (z-score),[26],-0.826

# Shown tab-delimited: part of the list above.
binder	measurement	setting	value
Blon2355mut (Bifidobacterium longum) (protein) MVQEPTLEWHVIPEPTNVEPLVGTCSLPLSGTVVEQRGADDAEAVFARQLVDDIKRVCGGRWQVASGEVQREVTLRTSPSLDDWSYVLEVSPDGVVITGSGFEGVRDGVQTLRQIIRQIGLTIPCMVIRDRPAFSTRGYYLDVTRGRVPSMAWLKSWVDRLCFYKYNQFQLYIEHTFQFNGLSEVWRGADPLTSSDILELDSYCAARGIELVPSVSTFGHHYTALRTRQLRDLGEFPEDADRPFSLIERMTHHTLNITDERSYEFSTSLIDELMPLFRSRKFNICANETFDLGKGRSKQESAKRGVGAMYADFVERLCRHVDDRGHDVMVWADVALEHPEIIDTLPKNITWLNWQYEPNVDDGTTAALADAGATQMVCPAVWCWNALIPRIDDAWNNITRMARHGRAHDVSGMLVTDWGDFGHVNDPRMSVPGMIFGAQQSWNPDAELSEVDMLSRISTIEYGDHTGSVVGALRGASAKGGFSWSDLVTYLELDDGRGGCNTEIVRVMGCLEAYRNDLPQSGQARLADARVSMLRTLRDSILAGRELNGKLDDAAKDITQLLRVAGDPSSAAVWSLAIDGQRLLNRVGLALLAAHGVVRQDEAGIDAAKLADELECWTEQYSRLWHEVSRQSELARIQHVVWRAADVLRSI	glycan array binding signal (z-score)	Gal3S6S(b1-4)GlcNAc	1.32
same	glycan array binding signal (z-score)	Gal3S6S(b1-4)GlcNAc6S	1.03
